Assay results as given in US20240294550A1, “8-OXA-3-AZABICYCLO[3.2.1]OCTANE COMPOUNDS OR SALT THEREOF, AND PREPARATION METHOD AND USE THEREOF” (LITTDD MEDICINES LTD, priority 2021, published 2024).
In brackets after ≈: the same amount, converted by molar mass. Where two headings read alike, the source gives them in different places.

Columns and labels:
[1] = Metabolic stability in mouse liver microsomes; type: in vitro ADME, CD-1 mice
Procedure: Screen. […] After incubation for appropriate time (such as 5, 10, 20, 30 and 60 minutes), samples were collected, and an appropriate termination solution (glacial acetonitrile containing 200 ng/mL tolbutamide and 200 ng/mL labetalol (i.e. acetonitrile at 4° C.)) was added to stop the reaction. Sample treatment (n=1): each appropriate sample was added, vortexed and centrifuged at high speed. The supernatants were collected, and detected the substrate by HPLC-MS/MS. The peak area at the 0 min was set as 100%. The peak areas at other time points were converted to percentages of the remaining amount. The natural logarithms of the percentage of remaining amount at each time point was plotted against the incubation time, and the slope (−k) was calculated. Then, Clint (μL/min/mg) and half-life (T½, min) of the compounds were calculated following the equation: Inherent clearance rate (Clint)=(k*Volume of incubation solution)/Mass of liver microsomes.

[2] = Pharmacokinetic (PK) assay in mice; type: in vivo; conditions: CD-1 mice; for AUC(0-t): read-out: AUC0-24 h
Procedure: The PK of each compound was determined as follows: 6 CD-1 mice (obtained from Shanghai Lingchang Biotechnology Co., Ltd.) were divided into two groups, 3 mice in each group. […] Blood samples were collected from saphenous vein of lower leg in each group at 0, 0.083, 0.25, 0.5, 1, 2, 4, 6, 8 and 24 h after administration. Approximately 40 μL of the blood samples were collected in anticoagulant tubes containing EDTA-K2. Immediately after collection, the tubes were inverted at least 5 times to ensure adequate mixing, and then placed on ice. The blood samples collected at each time point were centrifuged at 4° C., 8000 rpm for 5 minutes to obtain plasma. Another 1.5 mL centrifuge tube was marked with the compound name, animal number, and time point, and the plasma was transferred to this tube. The plasma was stored at −80° C. until analysis.
Compound concentrations in plasma were determined by UPLC-MS/MS method, and the pharmacokinetic parameters were calculated by Phoenix WinNolin 6.4 pharmacokinetic software on the obtained data.

[3] = physchem; conditions: pH 6.5, fassif, thermodynamic from solid

half-life at 1 μM ([1]; CD-1, 1 μM compound): 0.418 h
microsomal CLint at 1 μM ([1]; CD-1, read-out: CLint(mic)): 55.1 µL/min/mg
Remain % (T = 60 min) ([1]; T = 60 min): 17.0%
CL_obs ([2]; IV dose 1 mg/kg): 36.3 mL/min/kg
half-life ([2]; mouse, plasma, IV dose 1 mg/kg): 2.79 h
half-life ([2]; mouse, plasma, Po dose 5 mg/kg): 2.21 h
C0 ([2]; mouse, IV dose 1 mg/kg, plasma): 764 ng/mL
AUC(0-t) ([2]; mouse, IV dose 1 mg/kg, plasma): 445 ng·h/mL
Cmax ([2]; mouse, Po dose 5 mg/kg, plasma): 526 ng/mL
AUC(0-t) ([2]; mouse, Po dose 5 mg/kg, plasma): 704 ng·h/mL
solubility [3]: 33.4 µg/mL (≈ 89 µM)
SMILES: C[C@@H]1COCCN1c1cc(-c2ccnn2C)c2ccnc(-c3ccn[nH]3)c2n1 [BAY-1895344, reference compound]
